Data source: PubChem BioAssay AID1508597 (Cure First, 2020)

- Test: 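Survival screen with siRNA in ovarian cancer cells derived from patients, with or without rucaparib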 (primary screen)
- Cell system: human ovarian carcinoma lines grown from tumours: OCI-P5x (papillary serous) and OCI-C5x (clear cell)
- Reagents: siRNA pool against human genes, 1.25 pmol siRNA per well
- Timing: 72 h or 96 h, depending on the cell culture
- Conditions: rucaparib 20 µM (about IC30) or vehicle, present until read-out
- Rucaparib or vehicle: Vehicle
- Cell line: OCI-P5x (serous)
- Measurement: 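ATP luminescence measured at 72 or 96 h according to the culture, then normalised and expressed as percent viability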
- Direction: viability, normalised: higher = more viable cells remaining
- Call rule: 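Active when normalised viability falls below 80 percent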
- Meaning of the calls: active = viability under 80%; inactive = viability 80% or more
This is an unselected part of the about 2,100 reagents, under one of the conditions tested. 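Calls flag viability under 80% in either arm, not effects specific to rucaparib; the reference for percent is not stated.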 Some reagents were tested in more than one well and are listed for each. Reagent sequences are not shown. The record does not give: the 100% reference.

| target | technical replicate | viability, normalised (%) | Outcome |
| --- | --- | --- | --- |
| UBR5 | 1 | 78.5 | active |
| UBR5 | 2 | 71.5 | active |
| UBR5 | 3 | 87.5 | inactive |
| AK4 | 1 | 68.2 | active |
| AK4 | 2 | 71.5 | active |
| AK4 | 3 | 77.5 | active |
| INO80E | 1 | 69.9 | active |
| INO80E | 2 | 80.8 | inactive |
| INO80E | 3 | 92.8 | inactive |
| MIER3 | 1 | 66.6 | active |
| MIER3 | 2 | 70.8 | active |
| MIER3 | 3 | 71.3 | active |
| PRKAG2 | 1 | 64.8 | active |
| PRKAG2 | 1 | 63.3 | active |
| PRKAG2 | 2 | 71.6 | active |
| PRKAG2 | 2 | 75.2 | active |
| PRKAG2 | 3 | 67.1 | active |
| PRKAG2 | 3 | 94.1 | inactive |
| SMPD2 | 1 | 95.1 | inactive |
| SMPD2 | 2 | 80.5 | inactive |
| SMPD2 | 3 | 56.2 | active |
| DHX15 | 1 | 59.2 | active |
| DHX15 | 2 | 53.3 | active |
| DHX15 | 3 | 60.8 | active |

Laid out differently: results already given
{"target":"INO80E","technical replicate":"3","viability, normalised (%)":92.8,"Outcome":"inactive"}
{"target":"MIER3","technical replicate":"1","viability, normalised (%)":66.6,"Outcome":"active"}
